# Source: PubChem BioAssay AID393 (SGCOxCompounds, 2006)
# Amino acid sequences for entries named in this document (tags omitted).
# UniProt P11309, whole entry, looked up: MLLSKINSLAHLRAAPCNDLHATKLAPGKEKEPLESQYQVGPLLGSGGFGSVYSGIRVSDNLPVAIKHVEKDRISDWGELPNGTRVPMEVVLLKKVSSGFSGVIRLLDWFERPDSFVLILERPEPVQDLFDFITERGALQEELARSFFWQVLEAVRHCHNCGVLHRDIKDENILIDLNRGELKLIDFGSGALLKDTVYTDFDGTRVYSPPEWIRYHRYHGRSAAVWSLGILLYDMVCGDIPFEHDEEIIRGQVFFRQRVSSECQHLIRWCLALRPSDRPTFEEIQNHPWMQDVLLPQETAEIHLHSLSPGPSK
# Most of the hits are listed elsewhere, so they are rarer here than in the full data. Active and inactive are the calls of the source. How the calls were made is not given here.
# Target: Serine/threonine-protein kinase pim-1 (Homo sapiens) (UniProt P11309)
# Experiment: PIM1 kinase ligand binding by thermal shift, biophysical, human, melting temperature shift (AID 393)
# Conditions: Thermal shift assay, at 10 µM, protein 2 µM, buffer 10 mM PIPES, pH 6.5, NaCl 150 mM, hits give high values
row,SMILES,Tm shift
1,CCC(CO)Nc1ccc2ncc(-c3cccc(NC(C)=O)c3)n2n1 (configuration not stated),active: 5.07 Celsius
2,CCC(CO)Nc1ccc2ncc(-c3cccc(Cl)c3)n2n1 (configuration not stated),active: 7.52 Celsius
